Laboratory results: publication PMC13473141
Results are given in words; binding and its absence hold for the method and conditions named. Binding seen in cells or lysates may run through a third protein. Some binding calls cover weakened binding; strength is not graded here. For some of these results: Tags and fused reporters may be left off the sequences shown.

The chains behind the UniProt entries cited, without tags or fusion partners.
UniProt Q93009: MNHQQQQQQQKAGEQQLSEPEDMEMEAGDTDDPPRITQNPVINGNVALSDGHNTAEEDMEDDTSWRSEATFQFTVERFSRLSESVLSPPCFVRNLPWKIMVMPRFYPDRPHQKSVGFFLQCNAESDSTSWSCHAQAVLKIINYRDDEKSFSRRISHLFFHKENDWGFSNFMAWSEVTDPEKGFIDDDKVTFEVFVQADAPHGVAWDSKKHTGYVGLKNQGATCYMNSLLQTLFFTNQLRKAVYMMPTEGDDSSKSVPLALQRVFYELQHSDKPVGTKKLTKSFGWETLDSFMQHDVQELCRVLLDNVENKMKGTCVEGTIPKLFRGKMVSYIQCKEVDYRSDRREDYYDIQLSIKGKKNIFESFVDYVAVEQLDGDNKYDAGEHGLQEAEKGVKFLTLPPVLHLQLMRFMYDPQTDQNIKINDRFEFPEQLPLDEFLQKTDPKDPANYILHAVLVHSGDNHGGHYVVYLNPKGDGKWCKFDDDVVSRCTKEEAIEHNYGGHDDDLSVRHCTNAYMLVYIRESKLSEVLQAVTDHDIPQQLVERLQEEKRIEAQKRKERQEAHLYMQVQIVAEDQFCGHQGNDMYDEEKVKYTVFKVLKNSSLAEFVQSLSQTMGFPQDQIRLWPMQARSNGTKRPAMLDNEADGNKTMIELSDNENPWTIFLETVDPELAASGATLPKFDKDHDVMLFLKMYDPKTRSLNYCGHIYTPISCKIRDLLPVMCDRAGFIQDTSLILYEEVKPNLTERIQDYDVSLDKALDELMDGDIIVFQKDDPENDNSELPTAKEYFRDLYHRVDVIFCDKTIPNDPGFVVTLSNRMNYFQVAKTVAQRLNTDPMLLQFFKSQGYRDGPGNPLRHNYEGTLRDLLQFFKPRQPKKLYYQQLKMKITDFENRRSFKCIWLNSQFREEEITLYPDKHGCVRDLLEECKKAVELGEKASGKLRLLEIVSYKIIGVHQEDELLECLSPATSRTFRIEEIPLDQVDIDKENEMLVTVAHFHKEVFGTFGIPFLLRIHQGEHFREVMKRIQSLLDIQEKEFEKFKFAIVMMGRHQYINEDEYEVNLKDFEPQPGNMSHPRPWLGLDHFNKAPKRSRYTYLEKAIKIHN
UniProt Q9NWV8: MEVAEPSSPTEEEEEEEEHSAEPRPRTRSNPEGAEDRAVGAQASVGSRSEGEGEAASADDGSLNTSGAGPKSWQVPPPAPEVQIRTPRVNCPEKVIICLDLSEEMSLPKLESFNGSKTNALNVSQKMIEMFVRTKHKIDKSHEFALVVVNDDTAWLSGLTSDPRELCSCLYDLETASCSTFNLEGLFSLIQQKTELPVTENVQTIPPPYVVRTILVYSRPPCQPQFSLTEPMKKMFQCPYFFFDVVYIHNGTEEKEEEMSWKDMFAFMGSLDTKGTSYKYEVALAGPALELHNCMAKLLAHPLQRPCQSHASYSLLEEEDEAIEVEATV
UniProt Q9NXR7: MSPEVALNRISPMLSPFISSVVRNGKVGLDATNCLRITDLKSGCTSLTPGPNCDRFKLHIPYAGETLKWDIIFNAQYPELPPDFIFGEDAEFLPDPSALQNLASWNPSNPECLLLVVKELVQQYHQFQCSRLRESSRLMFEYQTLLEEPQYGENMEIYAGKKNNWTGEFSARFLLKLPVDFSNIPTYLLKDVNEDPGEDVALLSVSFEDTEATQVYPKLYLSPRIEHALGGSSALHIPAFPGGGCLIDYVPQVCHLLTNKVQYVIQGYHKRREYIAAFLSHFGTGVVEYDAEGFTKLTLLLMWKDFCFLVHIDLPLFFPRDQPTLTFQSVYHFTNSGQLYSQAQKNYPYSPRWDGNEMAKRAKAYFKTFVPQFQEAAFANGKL
UniProt P46736: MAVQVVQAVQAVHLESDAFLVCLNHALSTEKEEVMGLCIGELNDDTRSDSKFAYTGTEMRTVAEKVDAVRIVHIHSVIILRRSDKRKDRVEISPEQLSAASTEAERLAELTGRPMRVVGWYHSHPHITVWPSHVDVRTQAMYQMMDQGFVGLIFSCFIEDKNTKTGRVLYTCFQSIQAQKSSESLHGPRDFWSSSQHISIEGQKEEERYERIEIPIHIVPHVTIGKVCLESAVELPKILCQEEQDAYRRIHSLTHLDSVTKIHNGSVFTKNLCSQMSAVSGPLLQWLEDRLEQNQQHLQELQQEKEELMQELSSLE

What was measured:
FLAG-TOPORS [1] = molecular target: T1, FLAG-TOPORS (UniProt Q9NS56); experiment: co-IP; HEK293T transfected with FLAG-TOPORS or empty vector for 24 h; FLAG immunoprecipitated; eluates analysed by Western blot for endogenous proteins
T1 sequence: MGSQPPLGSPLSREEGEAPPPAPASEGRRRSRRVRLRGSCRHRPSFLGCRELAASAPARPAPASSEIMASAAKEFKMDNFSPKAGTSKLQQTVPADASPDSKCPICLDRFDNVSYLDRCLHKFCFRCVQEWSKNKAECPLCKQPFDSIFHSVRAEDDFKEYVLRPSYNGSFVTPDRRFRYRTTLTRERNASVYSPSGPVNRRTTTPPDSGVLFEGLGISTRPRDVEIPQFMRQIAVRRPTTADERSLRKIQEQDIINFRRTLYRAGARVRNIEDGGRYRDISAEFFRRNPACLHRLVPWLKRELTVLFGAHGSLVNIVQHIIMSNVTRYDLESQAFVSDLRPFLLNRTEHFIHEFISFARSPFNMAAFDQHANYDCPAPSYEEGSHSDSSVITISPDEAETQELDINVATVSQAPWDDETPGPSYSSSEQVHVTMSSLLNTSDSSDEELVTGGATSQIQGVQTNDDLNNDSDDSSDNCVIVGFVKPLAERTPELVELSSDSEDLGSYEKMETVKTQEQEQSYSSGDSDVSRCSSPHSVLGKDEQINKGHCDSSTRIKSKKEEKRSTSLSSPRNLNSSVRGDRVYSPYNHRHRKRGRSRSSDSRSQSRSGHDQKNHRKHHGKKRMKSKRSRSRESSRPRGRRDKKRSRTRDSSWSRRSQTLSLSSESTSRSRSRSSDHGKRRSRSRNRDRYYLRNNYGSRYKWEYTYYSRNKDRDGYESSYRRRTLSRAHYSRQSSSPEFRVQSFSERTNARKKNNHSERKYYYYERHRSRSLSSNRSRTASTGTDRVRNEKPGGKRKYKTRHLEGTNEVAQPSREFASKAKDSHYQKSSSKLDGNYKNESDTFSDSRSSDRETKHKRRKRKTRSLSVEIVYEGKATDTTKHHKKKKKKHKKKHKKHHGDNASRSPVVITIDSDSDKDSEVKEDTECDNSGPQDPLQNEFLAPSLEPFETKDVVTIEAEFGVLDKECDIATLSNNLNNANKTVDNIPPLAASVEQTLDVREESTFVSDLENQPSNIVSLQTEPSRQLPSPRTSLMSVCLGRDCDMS

FLAG-TOPORS [2] = molecular target: T1, FLAG-TOPORS; experiment: co-IP; HEK293T transfected with Flag-TOPORS, Myc-USP7 or both (48 h); NETN lysis buffer; Flag or Myc beads, 1 h at 4 °C; Western blot
[3] = molecular target: T2, TOPORS (endogenous) (human (endogenous in cells that are not named; all cell lines of the paper are human)) (UniProt Q9NS56); experiment: co-IP; endogenous IP of TOPORS, blotted for the endogenous partners (Supplementary Fig. 5C); cells not named
T2 sequence: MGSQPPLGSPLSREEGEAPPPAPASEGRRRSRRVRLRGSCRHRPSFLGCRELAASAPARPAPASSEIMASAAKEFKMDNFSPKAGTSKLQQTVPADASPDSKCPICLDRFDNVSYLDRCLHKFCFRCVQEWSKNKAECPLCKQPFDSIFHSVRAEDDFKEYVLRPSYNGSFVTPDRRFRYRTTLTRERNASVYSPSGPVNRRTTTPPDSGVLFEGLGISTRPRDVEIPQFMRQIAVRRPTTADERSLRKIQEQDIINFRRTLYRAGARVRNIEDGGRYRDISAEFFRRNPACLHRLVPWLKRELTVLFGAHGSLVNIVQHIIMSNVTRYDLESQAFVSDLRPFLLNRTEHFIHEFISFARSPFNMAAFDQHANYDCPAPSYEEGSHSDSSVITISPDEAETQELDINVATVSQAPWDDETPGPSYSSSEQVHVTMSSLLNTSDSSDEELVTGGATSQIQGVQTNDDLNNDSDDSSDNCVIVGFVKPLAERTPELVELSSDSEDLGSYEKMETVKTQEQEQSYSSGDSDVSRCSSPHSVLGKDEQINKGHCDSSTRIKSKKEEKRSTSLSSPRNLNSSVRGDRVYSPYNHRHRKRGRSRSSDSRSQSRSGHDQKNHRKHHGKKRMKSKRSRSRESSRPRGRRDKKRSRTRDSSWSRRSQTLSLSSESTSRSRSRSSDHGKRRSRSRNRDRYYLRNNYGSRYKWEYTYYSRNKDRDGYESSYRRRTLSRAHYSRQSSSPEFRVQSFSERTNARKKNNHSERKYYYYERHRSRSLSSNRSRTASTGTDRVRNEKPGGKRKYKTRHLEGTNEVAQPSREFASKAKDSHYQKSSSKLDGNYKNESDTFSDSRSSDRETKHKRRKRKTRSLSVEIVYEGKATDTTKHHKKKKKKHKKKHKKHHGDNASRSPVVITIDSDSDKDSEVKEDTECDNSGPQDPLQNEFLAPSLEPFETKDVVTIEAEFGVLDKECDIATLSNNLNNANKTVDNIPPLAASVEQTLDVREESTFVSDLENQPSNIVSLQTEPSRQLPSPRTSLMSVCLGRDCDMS

Myc-USP7 = Myc-USP7 (UniProt Q93009); experiment: co-IP; HEK293T transfected with Flag-TOPORS, Myc-USP7 or both (48 h); NETN lysis buffer; Flag or Myc beads, 1 h at 4 °C; Western blot

Molecule	binding (FLAG-TOPORS [1])	other results
BABAM1/NBA1/MERIT40 (from UniProt Q9NWV8 1-329)	binds	
BRE/BRCC45 (from UniProt Q9NXR7 1-383)	binds	
BRCC3/BRCC36 (from UniProt P46736 1-316) (enzyme)	binds	
Myc-USP7 (from UniProt Q93009 1-1102) (enzyme)		binding (FLAG-TOPORS [2]): binds
USP7 (endogenous) (from UniProt Q93009 1-1102) (enzyme)		binding [3]: binds
RAP80 (protein, UniProt Q96RL1 1-719) MPRRKKKVKEVSESRNLEKKDVETTSSVSVKRKRRLEDAFIVISDSDGEEPKEENGLQKTKTKQSNRAKCLAKRKIAQMTEEEQFALALKMSEQEAREVNSQEEEEEELLRKAIAESLNSCRPSDASATRSRPLATGPSSQSHQEKTTDSGLTEGIWQLVPPSLFKGSHISQGNEAEEREEPWDHTEKTEEEPVSGSSGSWDQSSQPVFENVNVKSFDRCTGHSAEHTQCGKPQESTGRGSAFLKAVQGSGDTSRHCLPTLADAKGLQDTGGTVNYFWGIPFCPDGVDPNQYTKVILCQLEVYQKSLKMAQRQLLNKKGFGEPVLPRPPSLIQNECGQGEQASEKNECISEDMGDEDKEERQESRASDWHSKTKDFQESSIKSLKEKLLLEEEPTTSHGQSSQGIVEETSEEGNSVPASQSVAALTSKRSLVLMPESSAEEITVCPETQLSSSETFDLEREVSPGSRDILDGVRIIMADKEVGNKEDAEKEVAISTFSSSNQVSCPLCDQCFPPTKIERHAMYCNGLMEEDTVLTRRQKEAKTKSDSGTAAQTSLDIDKNEKCYLCKSLVPFREYQCHVDSCLQLAKADQGDGPEGSGRACSTVEGKWQQRLKNPKEKGHSEGRLLSFLEQSEHKTSDADIKSSETGAFRVPSPGMEEAGCSREMQSSFTRRDLNESPVKSFVSISEATDCLVDFKKQVTVQPGSRTRTKAGRGRRRKF	binds	
FLAG-TOPORS (enzyme, UniProt Q9NS56 1-1045) MGSQPPLGSPLSREEGEAPPPAPASEGRRRSRRVRLRGSCRHRPSFLGCRELAASAPARPAPASSEIMASAAKEFKMDNFSPKAGTSKLQQTVPADASPDSKCPICLDRFDNVSYLDRCLHKFCFRCVQEWSKNKAECPLCKQPFDSIFHSVRAEDDFKEYVLRPSYNGSFVTPDRRFRYRTTLTRERNASVYSPSGPVNRRTTTPPDSGVLFEGLGISTRPRDVEIPQFMRQIAVRRPTTADERSLRKIQEQDIINFRRTLYRAGARVRNIEDGGRYRDISAEFFRRNPACLHRLVPWLKRELTVLFGAHGSLVNIVQHIIMSNVTRYDLESQAFVSDLRPFLLNRTEHFIHEFISFARSPFNMAAFDQHANYDCPAPSYEEGSHSDSSVITISPDEAETQELDINVATVSQAPWDDETPGPSYSSSEQVHVTMSSLLNTSDSSDEELVTGGATSQIQGVQTNDDLNNDSDDSSDNCVIVGFVKPLAERTPELVELSSDSEDLGSYEKMETVKTQEQEQSYSSGDSDVSRCSSPHSVLGKDEQINKGHCDSSTRIKSKKEEKRSTSLSSPRNLNSSVRGDRVYSPYNHRHRKRGRSRSSDSRSQSRSGHDQKNHRKHHGKKRMKSKRSRSRESSRPRGRRDKKRSRTRDSSWSRRSQTLSLSSESTSRSRSRSSDHGKRRSRSRNRDRYYLRNNYGSRYKWEYTYYSRNKDRDGYESSYRRRTLSRAHYSRQSSSPEFRVQSFSERTNARKKNNHSERKYYYYERHRSRSLSSNRSRTASTGTDRVRNEKPGGKRKYKTRHLEGTNEVAQPSREFASKAKDSHYQKSSSKLDGNYKNESDTFSDSRSSDRETKHKRRKRKTRSLSVEIVYEGKATDTTKHHKKKKKKHKKKHKKHHGDNASRSPVVITIDSDSDKDSEVKEDTECDNSGPQDPLQNEFLAPSLEPFETKDVVTIEAEFGVLDKECDIATLSNNLNNANKTVDNIPPLAASVEQTLDVREESTFVSDLENQPSNIVSLQTEPSRQLPSPRTSLMSVCLGRDCDMS		binding (Myc-USP7): binds
